# The supplement of paper PMC11150407
# Hit rate of the full screen: of about 3,000 compounds, about 45 (2%) showed an effect of 50% or more. This is one part of the list.
# Tested on: MOLM1 and UCSD/AML1 (averaged)
# Assay: cell viability relative to DMSO control (POC); higher = less growth inhibition
# Settings: 1 µM; 72 h
# Protocol: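 Primary viability screen in the 3q26 EVI1-high AML cell lines MOLM1 and UCSD/AML1, compounds at 1 uM for 72 h. ATP CellTiter-Glo read-out given as percent viable over DMSO control (POC), averaged over duplicates. This mapping covers the TimTec NDL-3000 natural derivative library, whose compounds are identified by TimTec catalogue codes (ST...).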
row,SMILES,cell viability [%]
1,NCCc1c[nH]c2cccc(OC(=O)c3ccc(C(=O)O)cc3)c12,92.9
2,COC(=O)CC(NC(=S)N1C[C@@H]2C[C@@H](C1)c1cccc(=O)n1C2)C(=O)OC (stereo not given in full),92.1
3,O=c1ccn(C(=[Se])n2ccc(=O)[nH]c2=O)c(=O)[nH]1,89.6
4,O=C1NC(=O)C(=Cc2ccc3c(c2)OCO3)C(=O)N1,86
5,COC(=O)CC(c1ccccc1)c1c(O)c2ccccc2oc1=O (stereo not given),95
6,COc1ccc(C2C(C#N)=C(N)Oc3c2c(=O)oc2ccccc32)cc1CCc1ccc(Cl)cc1 (stereo not given),101
7,Cc1ccc(C(c2c(O)c3ccccc3oc2=O)c2c(O)c3ccccc3oc2=O)cc1,102
8,COc1cc(CC(C)=O)ccc1O,95.8
9,OC12CCCCC1C(Cc1ccccc1)NCC2 (stereo not given),104
10,O=C(O)CCCCCCCCCCCCCCCO,109
11,C[N+]1(Cc2ccccc2)CCCC1c1ccc(N)nc1 (stereo not given),109
12,O=C1NC(=O)C(=Cc2ccc([N+](=O)[O-])cc2)C(=O)N1,100
13,COCCOC(=O)c1c(C)n(Cc2ccccc2Cl)c2ccc(O)cc12,106
14,CCC(COC(=O)c1cc(OC)c(OC)c(OC)c1)(c1ccccc1)N(C)C (stereo not given),85.1
15,COCCOC(=O)c1c(C)n(Cc2ccccc2)c2ccc(O)cc12,96.9
16,O.O.O.O.O.O.O.O=S(=O)(O)O.OCCN1CCCCC1c1cccnc1.[Co] (stereo not given),106
17,COc1ccc(CCN)cc1.Cc1ccc(-c2cc(C(=O)O)c3ccccc3n2)cc1,101
18,CC12CCC3C(CC=C4CC(OC5CCCCO5)CCC43C)C1CCC2=O (stereo not given),90.4
19,COc1ccc2c(CN3CC=C(c4ccccc4)CC3)cc(=O)oc2c1,102
20,CCOC(=O)c1c(CN2CCN(c3ccccc3C)CC2)n(Cc2ccccc2)c2cc(Br)c(O)cc12,94.5
21,Cc1cc2c(c(O)c1-c1c(C)cc3c(c1O)C(C=C1C(=O)NC(=O)NC1=O)C(=O)C(O)=C3C(C)C)C(C=C1C(=O)NC(=O)NC1=O)C(=O)C(O)=C2C(C)C (stereo not given),96.2
22,CCOc1ccc(C(=O)Nc2ccc(C#N)c(Cl)c2)cc1OCC,101
23,COC(C)C(O)(C(=O)OCC1=CC[N+]2(C)CCC(O)C12)C(C)C (stereo not given),107
24,O=c1c2ccccc2nc(CSc2ncnc3nc[nH]c23)n1-c1ccc(Cl)c(Cl)c1,99.5
25,CC(O)CN1CCCCC1c1cccnc1.O.O.O.O.O.O.O=[N+]([O-])O.O=[N+]([O-])O.[Co] (stereo not given),97.4
26,C=CCNC(=S)OCCN1CCCCC1c1cccnc1.O.O.[Cl][Cu][Cl] (stereo not given),109
27,Cc1ccc2c(c1)c1c3n2CCN([N+](=O)[O-])C3CCC1 (stereo not given),101
28,COc1ccc(C2C(C#N)=C(N)Oc3c2c(=O)oc2ccccc32)cc1Cn1nc([N+](=O)[O-])c(Br)c1C (stereo not given),91.9

row,SMILES,cell viability [%]
1,OCC(O)[C@H]1O[C@@H]2OC(C(Cl)(Cl)Cl)OC2C1O (stereo not given in full),100
2,O=[N+]([O-])OCCC12C(I)C3C4CC5C3C1C(I)C5C42 (stereo not given),70.3
3,O=C1CCC(=O)N1C1CCCN2CCCCC12 (stereo not given),103
4,CCOC(=O)C1=C(N)Oc2c(c(=O)oc3ccccc23)C1c1ccc(Br)cc1 (stereo not given),93
5,Cc1[nH]c2ccc(I)cc2c1CCN,97.8
6,N#CCCOCCC#CCN1CCCCC1c1cccnc1 (stereo not given),105
7,CNCC(O)c1ccc(O)cc1 (stereo not given),102
8,COC(=O)c1c(C)n(Cc2ccc3c(c2)OCO3)c2ccc(O)cc12,93.4
9,CN1C2CC(OC(=O)C(CO)c3ccccc3)CC1C1OC12 (stereo not given),102
10,N#CC1=C(N)Oc2c(c(=O)oc3ccccc23)C1c1ccc(F)cc1 (stereo not given),91.4
11,O=c1[nH]c(O)c(N=Nc2cccc([N+](=O)[O-])c2)c(=O)[nH]1,96.3
12,C/C=C1\C[N+]2(CC)CCC34c5cccc(O)c5NC3C(C=O)C1CC42 (stereo not given),105
13,COc1c(O)cc(C2C(C#N)=C(N)Oc3c2c(=O)oc2ccccc32)cc1[N+](=O)[O-] (stereo not given),102
14,N#Cc1cc2ccc(O)cc2oc1=O,95.3
15,CN1C2CCC1CC(=O)C2,94.3
16,O=C1NC(=O)N(c2ccc3c(c2)OCO3)C(=O)/C1=C/c1ccc(N2CCCCC2)cc1,108
17,COCCOC(=O)c1c(C)n(Cc2ccco2)c2ccc(O)cc12,99.4
18,CC(C[N+]1(C)CCCCC1)OC(=O)CCCCC(=O)OC(C)C[N+]1(C)CCCCC1 (stereo not given),107
19,c1cnc2c(OCC3CCCN4CCCCC34)cccc2c1 (stereo not given),103
20,COC(=O)C(CCCN=C(N)N[N+](=O)[O-])NC(=O)c1ccc(C)cc1 (stereo not given),94.4
21,CC(=O)c1c(C)n(Cc2ccccc2Cl)c2ccc(O)cc12,89.6
22,O=C(Cc1ccccc1)OCC1CCCN2CCCCC12 (stereo not given),99.6
23,CCOC(=O)C1=C(N)Oc2c(c(=O)oc3ccccc23)C1c1ccc(Cl)c(Cl)c1 (stereo not given),37.7
24,N#CC1=C(N)Oc2c(c(=O)oc3ccccc23)C1c1cccs1 (stereo not given),97.3
25,COc1cc(OC)c(OC)cc1C=O,103
26,CCN(CC)CCNC(=O)c1c(O)c2ccccc2n(Cc2ccccc2)c1=O,93.9
27,O=C1CC2OCC=C3CN4CCC56c7cc([N+](=O)[O-])ccc7N1C5C2C3CC46 (stereo not given),96.4
